Whole data set: some 33,000 sequences, median “E-score (-0.5 to 0.5)” near -8e-05, cut for the highest 2% near 0.23. Some of the results follow.
Target: T1, Nrg2 (UniProt P38082)
T1 sequence: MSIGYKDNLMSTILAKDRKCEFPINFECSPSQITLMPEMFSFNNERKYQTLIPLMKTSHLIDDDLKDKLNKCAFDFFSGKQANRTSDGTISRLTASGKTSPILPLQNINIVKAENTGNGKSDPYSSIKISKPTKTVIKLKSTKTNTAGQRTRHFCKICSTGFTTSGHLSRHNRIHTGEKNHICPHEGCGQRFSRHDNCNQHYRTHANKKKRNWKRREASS
Assay: PBM E-score (8-mer binding enrichment) (E-score (-0.5 to 0.5)); higher = stronger / more preferred TF binding
Conditions: protein concentration: 100 nM; construct: GST-full length
How it was run: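 E-scores (a modified Wilcoxon-Mann-Whitney statistic) were assigned by the Universal PBM Analysis Suite to every ungapped eight-base word pooled with its reverse complement. The input came from universal all-10-mer Agilent arrays made double-stranded by primer extension and probed with GST-tagged yeast transcription factors at about 100-200 nM. Fluorescent anti-GST detected bound protein, and masliner normalised the scans.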

Sequence	PBM E-score
GTCTCTGA	-0.0466
AATGTCAC	0.0262
CGCTTTAA	0.182
ATTCTGTC	0.106
ACATAGCT	-0.141
GTTGTCAA	0.00605
GCACATGA	-0.0184
CCCGGTCA	-0.0989
GCTATTAA	0.154
GGAATACC	-0.0855
AGAAAACC	0.0863
TCACTTAA	-0.00633
AAGCCCCT	-0.00314
ATATTGAC	-0.0957
GTAATACA	0.01
ACCATTAG	-0.144
CGACGTTA	0.201
ACTACGGC	-0.00495
GACGCGGC	-0.0707
CAAGCGGC	0.0964
CTCTTTAC	-0.115
ACTTGACA	-0.219
CAACCGCC	0.0219
TAGGTTAA	0.00468
GGGACAAA	0.11

Sequence	PBM E-score
CTCCAGAC	-0.0159
CGGTTCCC	-0.124
CTTATGTC	0.0927
TCCGTTAA	-0.0336
AAGCGCTT	0.303
CATGGCCC	-0.066
ATCCGGTG	-0.0138
CCGTATAC	-0.0156
CCGAGACA	0.0946
ACTATTCA	0.0935
CGGTGCAC	-0.0523
CTATAGCC	-0.314
CCGAAGGA	-0.162
ATTCAGAA	0.0453
AGAGCTAC	0.00658
CGGCACTC	-0.00346
CACGATCC	0.0243
GCACAAGC	0.0232
AGGGGCCC	0.276
CTAATTAG	0.149
CTGTCCGC	0.0765
TGATAGCA	0.14
AAATGATA	0.225
ATGTAAAT	0.0732
GACAACCC	-0.0186

Sequence	PBM E-score
GACTTTCA	0.137
ATACACGG	0.0292
AGCGGATG	-0.169
ATCAGTCC	-0.367
GGGTTGAA	-0.0476
CCTTAAGG	0.141
CGCATACG	0.0586
ACCTGCGT	0.0464
CGCTAGGA	-0.0444
GATGGGGA	0.00444
AACCACAT	0.193
GAAGTAGC	-0.0332
GGCCTTTA	-0.104
GTGGCCAA	-0.00751
CAAAGCCG	-0.0677
GGGAATCA	0.0217
ACAAAAGT	0.0934
TAAAGGCA	0.116
AAGGGACG	0.207
CGAGTAGA	0.00096
ACTTGATG	-0.00378
ACAAAATC	0.0858
GCACATAA	0.148
CCCCTTCG	-0.197
CAGCGCCG	-0.09

Sequence	PBM E-score
CAGCAGAC	0.0273
CGGAGAAA	0.0181
AACCTGCC	-0.0409
CCAGGTAC	-0.193
ACGTATCA	0.0634
CCGTGTCC	0.104
AACTAATA	0.354
CCAGGTAA	0.0627
TAGAGTAA	0.0383
GTTGGCAA	-0.0413
AGATCAAG	0.0881
AAGGTTCG	-0.0484
GCCTAACC	-0.0762
TATGTGAA	-0.163
CAAAGTCC	0.0592
AGCACGGA	-0.167
CCCTGGAA	0.0405
CGTTGTCC	0.107
ACGTATCC	-0.198
TGGATAAA	0.0491
ACACACCC	0.00959
CCCGGGAC	0.0114
CTTGTGTC	0.0792
TCACAAAA	0.108
GTACACTA	0.023

Five entries picked at random from those above, as already listed:
Sequence	PBM E-score
TAGAGTAA	0.0383
CCAGGTAC	-0.193
AAGGTTCG	-0.0484
AGCACGGA	-0.167
AACCTGCC	-0.0409

More records.

Sequence	PBM E-score
TCCATAGA	-0.202
CCTGCCGA	0.119
CTATGGCC	-0.0228
CCCGAGGC	-0.176
ACGGGTTA	-0.195
CCAACTCG	0.0227
ATGCCAAG	0.0177
AGTCGCGA	0.226
TAGTGTGA	0.0302
AGCTATCC	-0.208
CTACACGC	-0.188
CTGTACTA	-0.00037
ACAAATGG	0.0685
AAGTTACA	0.196
CACATGGC	-0.169
GATTAAAA	0.157
AGAAGACC	-0.0207
CGTAACTC	-0.154
AGGTTCAT	-0.00284
CCGCGTGC	-0.0852
CATACCAC	-0.0447
CGAACGAG	-0.124
GTCGTTGA	-0.183
CCATTAGG	-0.128
GGCGGCCC	-0.118

Some of the entries above, set out differently:
Sequence | PBM E-score
CTATGGCC | -0.0228
AAGTTACA | 0.196

(next part)

Sequence	PBM E-score
AACATTCA	-0.0408
CGAGAGAG	-0.101
AATACGAC	-0.1
AATCTGGA	0.00171
AGCGGCTC	-0.179
AATACATC	0.0729
CCGGATAC	-0.139
GGCCATAA	-0.0168
ACTTACTA	0.052
ATACCCCA	0.158
CTTTCTAA	-0.102
CAAGATCA	0.07
ACCCCACC	0.214
AAATCCCT	0.0808
ATAATCTG	0.055
AGGATCAA	0.162
CGACTCAG	-0.0107
GCAAGGTA	-0.0675
GGATACAA	0.0295
CCTATGAA	-0.0488
CAGCCCCA	0.105
GAGTCTCA	-0.188
AGACATTA	0.00227
TGGGGACA	-0.187
ATTGTGAA	0.0535

Sequence	PBM E-score
CAAAGGCG	-0.0626
CGGACCGA	0.13
CCTTAAAC	-0.0342
CACCGCGG	0.145
ACCTCACA	-0.00605
ACCTCGAG	0.281
CATTATTA	0.184
CAGAACGC	0.0404
GAACCCGA	0.0992
GCACTACC	0.186
AAAAGAAA	0.11
ACAGTCGA	-0.099
AAGCAGCG	-0.0162
GCAATCCC	0.0887
GAATGAAC	0.125
AGGTAACA	0.0822
CGACAAAG	0.196
AAGTTTTC	0.0514
ATTCCTGC	0.108
CGCGAACC	-0.0708
CTGTTCTC	-0.0276
CAAATCTA	0.101
CCCTCGGC	0.00288
GAGTCTCC	-0.178
GCAAACAC	0.0152

Reformatted field by field: entries from further up.
ACAGTCGA
  PBM E-score = -0.099
AAGCAGCG
  PBM E-score = -0.0162
GCAATCCC
  PBM E-score = 0.0887
GAATGAAC
  PBM E-score = 0.125

Next records:

Sequence	PBM E-score
AAAGTCCT	-0.025
ACGCAAAG	-0.0386
ACGACTTG	-0.188
GTGTCTAA	-0.131
GTCCTATA	-0.0387
AAGGGAGT	-0.163
CATGAAGA	-0.0544
AAATGCAA	-0.0186
CGACGATA	-0.0469
AACGTGGA	0.011
AGACGAAG	-0.0592
AGGTAATC	0.0928
ATTCCGGG	0.104
CGCGTATC	0.051
AGTTCTGA	0.00934
CAACTTCA	-0.0159
TGGGAACA	2e-05
ATAAGACA	-0.0576
AAAGGGCA	-0.042
CTGCTTAC	-0.00953
ACAACAGC	0.0433
AGCCCACG	-0.109
ATCAATCC	0.181
CCGTCGAA	-0.0955
ACGAGGTA	0.0253

Sequence	PBM E-score
AAATATTA	0.247
GTGGACAC	-0.11
CCCCATAG	-0.113
CAACAATG	0.168
CGTTCCCA	-0.174
CATATTTC	-0.0462
CCGATTGC	0.0444
AGCATCAG	-0.0252
ATAGTCCA	0.139
CTTGAAAG	-0.0754
CTATAGGC	-0.156
GCGCGAGC	0.0479
CCACCGAG	-0.0186
GGGCAACC	-0.0673
ACTTGTAT	0.0894
ACACTATG	0.0263
AGCTCAAG	-0.187
CCGCAAAC	0.0396
TACCCAAA	0.058
CTCACTCC	-0.165
CTGAGTTC	0.165
GGGGTGAC	-0.0804
GCACGCGA	0.0938
CTAAGTCC	-0.0517
AAATGCTG	0.0535

Sequence	PBM E-score
AGCGATGG	-0.0464
CTCAGTAA	-0.137
CTGGCCGC	-0.00936
GAATAAGA	-0.00457
CTTGGTGA	-0.0195
CCTGAGTA	0.0982
AATTAAGC	0.115
AAGCCAAA	-0.0721
ACGTTGAG	-0.101
AACTATGC	0.157
CTTTAACC	-0.0797
CCGGAAGG	-0.0304
TAGAATAA	-0.0123
ATAAACTG	0.101
CATAGCCC	-0.194
AAATTATA	0.175
CATCTGGC	-0.0965
CATTTCGA	0.148
GAGCGGGA	-0.0155
TCATTGAA	-0.122
CTGGAATC	-0.164
GGGCACAC	-0.0905
CACAGGCC	-0.0407
ACCCTTTA	0.203
CAATATCG	0.105

Sequence	PBM E-score
ACGGCAAA	0.107
AGCCCCCC	-0.378
GCTTAGGA	-0.132
ATTATAAG	0.118
GAGGGCAC	-0.111
CCATTACA	0.183
CGGAGCCA	-0.19
CATCGTGC	-0.0212
ATCCCGCA	0.08
AACCGTCG	-0.151
CCTATGCG	0.0257
GTCCTTGA	-0.221
AAAAGCGA	0.124
ATGCCCCC	-0.222
AACCCCCC	-0.386
CTAACTGC	-0.0704
CGCAGAGC	-0.0583
GCATCTTA	0.199
ACCTACAG	0.169
CTCCGTGA	-0.0834
GTACTAAC	0.0447
CATCAAGG	-0.126
GTCGCTGA	-0.0768
GACCACAA	-0.0922
AATGGTAG	0.151

Sequence	PBM E-score
CCAATTAC	0.0536
ACATACAG	0.0964
GAGACTAC	-0.116
AAGACTGA	-0.0531
CCGAAAAC	0.0713
CCCTTGAA	0.166
ATCCACCG	-0.0309
TAAGGAGA	-0.0683
ACCGCTAT	-0.035
CCACCTGG	-0.215
ATTTGTGC	0.0437
CGTGGTAA	-0.134
ATGTTTCG	0.0942
AGAGCCTG	-0.243
GCAATGCA	0.134
ACTGGTTG	0.113
ATCAACGG	0.0274
CCTATCAG	-0.0557
AGCCGATC	0.129
CAGATACC	-0.0393
GAAAATGC	0.0631
AGTCAGAC	-0.0122
AACCCCTA	0.25
GCCAGCGC	-0.133
ACTCGTAG	-0.0129

Sequence	PBM E-score
AGACCGCG	0.063
ACAATTAC	0.103
TCTAAGAA	0.0944
ATACTTGA	-0.105
AGAGATAG	-0.042
GCCGGGCA	-0.161
AAGGTACG	0.00371
ACTTTGGG	0.0184
GTGAATGA	0.0214
CAGACTGC	-0.142
ACGTTTAC	-0.0273
ATTCCCGA	-0.0402
AATTAAAA	0.126
CATACACA	-0.0317
TGTTTTAA	0.078
CGAATGGA	0.141
AATGAATG	0.13
CTTAGAAC	0.0319
CATTAGAG	0.06
CCTCGGTC	-0.222
CTAAAACA	-0.0868
AGACTCAA	-0.0795
ATGTCGAA	0.147
ACCCACCA	0.125
CATCCGGA	-0.0711

Sequence	PBM E-score
TACACTCA	0.109
GGGGCGGA	-0.138
AGTAGTCC	0.0411
ACCACGAT	0.192
GCTCGTGA	-0.214
AATTCTTC	0.0503
CTCTAGTA	-0.194
CTCTAACA	-0.0417
CTGAAGGA	-0.0763
CATTCTGG	-0.0394
AAGTGGCG	0.0544
CGATATGC	0.0739
GGTTCTAA	0.0104
CATTACAC	0.104
CCTCTTTC	-0.184
GCGTGAGC	0.142
CAGTTTGG	-0.114
GTCCACCA	-0.0195
ATCCAGGA	-0.0938

From the supplement of paper PMC3334620
